Binding data for 2 substances are collected here from article doi:10.1101/757856.

Sequences of proteins named here, by UniProt entry; tags and fusion partners are left off. A change or cut given only in a name is not applied to a line headed by its entry. A line that says so, or that is headed by a name, gives the form on record, which may keep a tag or linker. Residues count along the entry.
Neurofibromin DEF fragment (1541-2818, purified) (P21359, residues 1562-2839): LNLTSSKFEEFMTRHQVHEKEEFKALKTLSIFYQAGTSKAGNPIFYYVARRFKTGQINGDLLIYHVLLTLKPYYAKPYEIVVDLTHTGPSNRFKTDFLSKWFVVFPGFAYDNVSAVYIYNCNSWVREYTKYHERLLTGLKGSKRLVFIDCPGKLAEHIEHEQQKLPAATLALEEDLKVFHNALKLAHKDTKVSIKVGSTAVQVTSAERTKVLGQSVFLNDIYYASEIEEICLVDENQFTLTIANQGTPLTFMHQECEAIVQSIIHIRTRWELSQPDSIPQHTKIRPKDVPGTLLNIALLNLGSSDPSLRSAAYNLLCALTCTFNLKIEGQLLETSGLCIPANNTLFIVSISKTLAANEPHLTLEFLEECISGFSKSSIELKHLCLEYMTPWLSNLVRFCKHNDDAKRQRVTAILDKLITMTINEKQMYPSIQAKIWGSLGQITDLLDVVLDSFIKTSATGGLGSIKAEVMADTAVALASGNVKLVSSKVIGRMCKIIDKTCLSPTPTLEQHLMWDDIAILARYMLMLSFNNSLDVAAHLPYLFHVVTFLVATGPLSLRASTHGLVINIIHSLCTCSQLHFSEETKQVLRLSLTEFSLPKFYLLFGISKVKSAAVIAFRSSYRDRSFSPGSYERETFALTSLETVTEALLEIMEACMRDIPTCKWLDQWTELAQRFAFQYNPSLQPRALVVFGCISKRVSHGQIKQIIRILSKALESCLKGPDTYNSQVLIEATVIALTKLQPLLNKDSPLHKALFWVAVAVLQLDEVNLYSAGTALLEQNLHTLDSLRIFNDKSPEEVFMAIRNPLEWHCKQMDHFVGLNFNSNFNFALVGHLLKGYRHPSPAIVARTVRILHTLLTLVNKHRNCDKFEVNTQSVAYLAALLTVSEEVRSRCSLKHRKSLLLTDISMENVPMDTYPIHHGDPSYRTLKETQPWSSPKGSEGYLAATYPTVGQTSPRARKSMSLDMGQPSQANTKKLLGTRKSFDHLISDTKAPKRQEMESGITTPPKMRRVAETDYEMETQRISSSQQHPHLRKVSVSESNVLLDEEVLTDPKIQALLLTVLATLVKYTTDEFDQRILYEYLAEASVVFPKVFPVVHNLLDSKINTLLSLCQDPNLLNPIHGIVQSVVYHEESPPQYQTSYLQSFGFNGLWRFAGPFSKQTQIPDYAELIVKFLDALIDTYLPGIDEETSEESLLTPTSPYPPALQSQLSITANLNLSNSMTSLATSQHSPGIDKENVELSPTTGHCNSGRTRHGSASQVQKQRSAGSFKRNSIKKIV
full-length Neurofibromin, epitope-tagged (FLAG or V5), expressed in HEK293T cells (P21359-2, form named): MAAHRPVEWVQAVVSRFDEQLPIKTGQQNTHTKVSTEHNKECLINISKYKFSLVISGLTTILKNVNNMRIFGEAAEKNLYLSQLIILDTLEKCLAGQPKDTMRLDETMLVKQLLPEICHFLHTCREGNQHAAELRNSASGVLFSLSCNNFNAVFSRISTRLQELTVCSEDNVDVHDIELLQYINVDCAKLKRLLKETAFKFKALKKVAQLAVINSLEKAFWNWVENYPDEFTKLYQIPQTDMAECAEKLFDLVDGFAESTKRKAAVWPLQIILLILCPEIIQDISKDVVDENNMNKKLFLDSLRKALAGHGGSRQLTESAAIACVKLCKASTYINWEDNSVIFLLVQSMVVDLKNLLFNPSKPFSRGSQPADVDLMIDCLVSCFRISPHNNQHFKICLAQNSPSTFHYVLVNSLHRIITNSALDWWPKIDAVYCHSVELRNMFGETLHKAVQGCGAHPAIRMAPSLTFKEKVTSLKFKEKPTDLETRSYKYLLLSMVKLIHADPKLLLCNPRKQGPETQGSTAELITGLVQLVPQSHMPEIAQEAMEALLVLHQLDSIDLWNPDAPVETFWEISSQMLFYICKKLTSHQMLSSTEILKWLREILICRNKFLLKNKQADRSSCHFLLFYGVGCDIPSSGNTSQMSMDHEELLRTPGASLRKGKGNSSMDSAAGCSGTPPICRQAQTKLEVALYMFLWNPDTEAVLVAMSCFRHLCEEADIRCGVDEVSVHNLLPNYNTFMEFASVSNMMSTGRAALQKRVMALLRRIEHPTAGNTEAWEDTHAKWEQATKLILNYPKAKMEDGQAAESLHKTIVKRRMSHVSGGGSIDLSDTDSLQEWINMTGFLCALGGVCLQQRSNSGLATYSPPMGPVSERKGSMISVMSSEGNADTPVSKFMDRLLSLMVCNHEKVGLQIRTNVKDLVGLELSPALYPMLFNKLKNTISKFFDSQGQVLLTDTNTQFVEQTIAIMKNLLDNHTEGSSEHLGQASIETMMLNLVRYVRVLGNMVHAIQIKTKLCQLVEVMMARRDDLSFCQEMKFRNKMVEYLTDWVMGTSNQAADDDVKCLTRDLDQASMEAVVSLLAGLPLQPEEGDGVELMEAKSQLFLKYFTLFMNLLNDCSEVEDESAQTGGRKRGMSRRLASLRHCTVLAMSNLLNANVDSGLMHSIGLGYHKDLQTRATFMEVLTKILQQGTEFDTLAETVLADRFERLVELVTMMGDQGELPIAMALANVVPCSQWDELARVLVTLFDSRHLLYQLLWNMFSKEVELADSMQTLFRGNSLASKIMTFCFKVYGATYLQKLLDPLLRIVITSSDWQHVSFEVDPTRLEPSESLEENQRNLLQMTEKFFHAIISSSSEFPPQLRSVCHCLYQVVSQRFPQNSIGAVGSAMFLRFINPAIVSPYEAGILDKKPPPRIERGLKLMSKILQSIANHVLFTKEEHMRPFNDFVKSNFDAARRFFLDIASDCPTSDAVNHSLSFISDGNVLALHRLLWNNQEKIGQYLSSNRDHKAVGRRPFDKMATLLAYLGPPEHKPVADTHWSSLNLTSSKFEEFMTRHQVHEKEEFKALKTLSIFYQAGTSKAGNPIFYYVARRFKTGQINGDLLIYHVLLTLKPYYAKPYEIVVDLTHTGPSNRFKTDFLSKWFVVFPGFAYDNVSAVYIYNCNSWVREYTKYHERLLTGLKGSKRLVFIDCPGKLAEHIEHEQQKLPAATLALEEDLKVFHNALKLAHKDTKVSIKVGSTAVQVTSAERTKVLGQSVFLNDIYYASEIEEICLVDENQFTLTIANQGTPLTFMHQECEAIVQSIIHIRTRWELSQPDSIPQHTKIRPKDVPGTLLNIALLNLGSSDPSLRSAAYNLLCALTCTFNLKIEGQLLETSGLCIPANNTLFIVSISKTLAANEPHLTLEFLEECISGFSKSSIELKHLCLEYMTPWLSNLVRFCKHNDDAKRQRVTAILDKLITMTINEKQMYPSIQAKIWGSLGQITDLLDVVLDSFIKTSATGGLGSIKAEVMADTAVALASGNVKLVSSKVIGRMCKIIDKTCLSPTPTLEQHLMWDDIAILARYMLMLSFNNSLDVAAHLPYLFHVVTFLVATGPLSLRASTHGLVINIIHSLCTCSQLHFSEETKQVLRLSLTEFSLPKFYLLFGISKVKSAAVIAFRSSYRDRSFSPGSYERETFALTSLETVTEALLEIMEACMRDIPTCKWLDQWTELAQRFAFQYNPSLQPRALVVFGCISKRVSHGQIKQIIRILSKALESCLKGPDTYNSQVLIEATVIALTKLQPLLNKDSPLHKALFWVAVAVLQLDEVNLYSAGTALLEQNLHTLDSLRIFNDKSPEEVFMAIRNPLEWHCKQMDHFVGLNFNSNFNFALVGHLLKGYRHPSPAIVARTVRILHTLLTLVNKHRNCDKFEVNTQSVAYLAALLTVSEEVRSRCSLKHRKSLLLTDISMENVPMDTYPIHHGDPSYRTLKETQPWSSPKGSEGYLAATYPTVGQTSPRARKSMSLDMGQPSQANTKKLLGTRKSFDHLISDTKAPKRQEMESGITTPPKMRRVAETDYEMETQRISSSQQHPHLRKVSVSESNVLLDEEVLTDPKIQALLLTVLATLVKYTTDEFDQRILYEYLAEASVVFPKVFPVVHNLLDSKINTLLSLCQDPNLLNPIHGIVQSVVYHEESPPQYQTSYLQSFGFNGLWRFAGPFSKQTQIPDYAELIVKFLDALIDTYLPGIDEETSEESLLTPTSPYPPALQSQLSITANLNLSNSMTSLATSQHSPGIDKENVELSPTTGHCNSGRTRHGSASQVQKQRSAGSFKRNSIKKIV

These are yes or no findings as the source states them, for the method shown. For part of these data: In cells and extracts the contact can be indirect. Some results given as binding are weak or reduced against the parent protein; the word gives no strength.

In assay [1] the target is Neurofibromin DEF fragment (1541-2818, purified) (human) (UniProt P21359). As to the kind of experiment: SEC-MALS. A general note: Size exclusion chromatography separates by hydrodynamic size, large species first.
Assay [2] has the same target. As to the kind of experiment: AUC.
In assay [3] the target is full-length Neurofibromin, epitope-tagged (FLAG or V5), expressed in HEK293T cells (human) (UniProt P21359). As to the kind of experiment: co-IP.

Take “Neurofibromin DEF fragment (1541-2818, purified) (from UniProt P21359-2 1541-2818) (domain or fragment)”: the binding result in assay [1] and in assay [2] was “binds weakly” each time.

In the case of “full-length Neurofibromin, epitope-tagged (FLAG or V5), expressed in HEK293T cells (from UniProt P21359-2 1-2818)”, in assay [3], the binding entry is given as “binds”.
